Experimental data taken from paper PMC8384837.
Where a chain is given by its changes, count along the chain named. The list shows a part of the results. For some of these results: At the low end of the ranking the order means little. For some of these results: Construct or isoform of the protein are uncertain.

Experiments:
Conditions in all cases: yeast three-hybrid, YBZ-1, SC-Leu-His + 0.5 mM 3-AT, 4 days
[1] = target: T1, PUM1 PUF domain R1-QFR R2-VFQ R7-NPG S863Q + R864F + Q867R + N899V + Y900F + S1079N + N1080P + E1083G (UniProt Q14671)
T1 sequence: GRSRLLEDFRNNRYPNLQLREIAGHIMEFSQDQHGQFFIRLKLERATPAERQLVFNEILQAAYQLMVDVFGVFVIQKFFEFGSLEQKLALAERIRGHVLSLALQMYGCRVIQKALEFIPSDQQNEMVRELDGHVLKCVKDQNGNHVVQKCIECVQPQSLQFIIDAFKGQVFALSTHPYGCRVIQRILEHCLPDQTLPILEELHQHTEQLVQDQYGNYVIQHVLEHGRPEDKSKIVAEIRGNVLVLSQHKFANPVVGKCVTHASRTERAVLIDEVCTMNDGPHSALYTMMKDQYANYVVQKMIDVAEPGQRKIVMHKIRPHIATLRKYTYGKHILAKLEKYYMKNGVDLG

[2] = target: T2, PUM1 PUF domain R3-THE R4-TFR R7-NPG C935T + R936H + Q939E + N971T + H972F + Q975R + S1079N + N1080P + E1083G (Homo sapiens) (UniProt Q14671)
T2 sequence: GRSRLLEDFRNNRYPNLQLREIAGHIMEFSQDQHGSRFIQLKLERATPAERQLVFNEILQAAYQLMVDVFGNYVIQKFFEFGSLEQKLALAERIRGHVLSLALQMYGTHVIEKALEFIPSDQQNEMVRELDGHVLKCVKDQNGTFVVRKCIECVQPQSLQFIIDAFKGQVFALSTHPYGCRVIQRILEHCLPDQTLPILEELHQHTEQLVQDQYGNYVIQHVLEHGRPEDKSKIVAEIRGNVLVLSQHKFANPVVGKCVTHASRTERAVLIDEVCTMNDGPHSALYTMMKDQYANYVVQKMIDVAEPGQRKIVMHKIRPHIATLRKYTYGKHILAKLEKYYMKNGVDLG

[3] = target: T3, PUM1 PUF domain R5-PHQ R6-SWD C1007P + R1008H + N1043S + Y1044W + Q1047D (UniProt Q14671)
T3 sequence: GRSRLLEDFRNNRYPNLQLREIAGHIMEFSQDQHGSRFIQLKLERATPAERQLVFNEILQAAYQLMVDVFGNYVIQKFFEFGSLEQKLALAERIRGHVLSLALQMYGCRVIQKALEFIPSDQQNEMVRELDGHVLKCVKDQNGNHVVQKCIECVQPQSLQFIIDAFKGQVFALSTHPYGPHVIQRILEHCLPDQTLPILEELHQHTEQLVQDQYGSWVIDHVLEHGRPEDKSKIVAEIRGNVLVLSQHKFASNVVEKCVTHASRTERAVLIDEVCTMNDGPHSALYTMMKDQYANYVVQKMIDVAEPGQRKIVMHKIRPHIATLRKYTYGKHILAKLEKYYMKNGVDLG

[4] = target: T4, PUM1 PUF domain R3-THE R4-TFR R7-NPG C935T + R936H + Q939E + N971T + H972F + Q975R + S1079N + N1080P + E1083G (UniProt Q14671)
T4 sequence: T2 sequence

[5] = target: T5, PUM1 PUF domain R3-THE R4-TFR C935T + R936H + Q939E + N971T + H972F + Q975R (UniProt Q14671)
T5 sequence: T2 sequence with N252S, P253N, G256E

[6] = target: T6, PUM1 PUF domain R6-SWD R7-NPG N1043S + Y1044W + Q1047D + S1079N + N1080P + E1083G (Homo sapiens) (UniProt Q14671)
T6 sequence: T3 sequence with P180C, H181R, S252N, N253P, E256G

## GGCUAGAACUAGUGGAUCCCCCGGCGCCCGGCGGCUCGAGCCCGGGUAAGUUAAAAUUGUCUGCAUGCCGCCGGGCGCCAUGCCUGCAGGUCGACUCUAGAAAACAUG
[1]
  binding signal (log2 enrichment (interaction score)): -5.75
[2]
  binding signal (log2 enrichment (interaction score)): -1.36

## GGCUAGAACUAGUGGAUCCCCCGGCGCCCGGCGGCUCGAGCCCGGGUAAGUCGAACACGUCUGCAUGCCGCCGGGCGCCAUGCCUGCAGGUCGACUCUAGAAAACAUG
[1]
  binding signal (log2 enrichment (interaction score)): -5.82
[2]
  binding signal (log2 enrichment (interaction score)): < -0.51

## GGCUAGAACUAGUGGAUCCCCCGGCGCCCGGCGGCUCGAGCCCGGGUAAGUGGCAGAAGUCUGCAUGCCGCCGGGCGCCAUGCCUGCAGGUCGACUCUAGAAAACAUG
[1]
  binding signal (log2 enrichment (interaction score)): -5.93
[2]
  binding signal (log2 enrichment (interaction score)): -1.32
[3]
  binding signal (log2 enrichment (interaction score)): < -7.22

## GGCUAGAACUAGUGGAUCCCCCGGCGCCCGGCGGCUCGAGCCCGGGUAAGUGUUAGACGUCUGCAUGCCGCCGGGCGCCAUGCCUGCAGGUCGACUCUAGAAAACAUG
[1]
  binding signal (log2 enrichment (interaction score)): < -5.59
[4]
  binding signal (log2 enrichment (interaction score)): < -2.48

## GGCUAGAACUAGUGGAUCCCCCGGCGCCCGGCGGCUCGAGCCCGGGUAAGUUUACGAAGUCUGCAUGCCGCCGGGCGCCAUGCCUGCAGGUCGACUCUAGAAAACAUG
[1]
  binding signal (log2 enrichment (interaction score)): -5.93
[5]
  binding signal (log2 enrichment (interaction score)): -6.4
[6]
  binding signal (log2 enrichment (interaction score)): -1.24

## GGCUAGAACUAGUGGAUCCCCCGGCGCCCGGCGGCUCGAGCCCGGGUAAGGUUACAAAGUCUGCAUGCCGCCGGGCGCCAUGCCUGCAGGUCGACUCUAGAAAACAUG
[1]
  binding signal (log2 enrichment (interaction score)): < -6.63
[4]
  binding signal (log2 enrichment (interaction score)): -2.46

## GGCUAGAACUAGUGGAUCCCCCGGCGCCCGGCGGCUCGAGCCCGGGUAAGCUGAAAUCGUCUGCAUGCCGCCGGGCGCCAUGCCUGCAGGUCGACUCUAGAAAACAUG
[1]
  binding signal (log2 enrichment (interaction score)): -5.18
[2]
  binding signal (log2 enrichment (interaction score)): < -0.28
[3]
  binding signal (log2 enrichment (interaction score)): -8.37

## GGCUAGAACUAGUGGAUCCCCCGGCGCCCGGCGGCUCGAGCCCGGGUAAGUUGUAAUCGUCUGCAUGCCGCCGGGCGCCAUGCCUGCAGGUCGACUCUAGAAAACAUG
[1]
  binding signal (log2 enrichment (interaction score)): -6.34
[2]
  binding signal (log2 enrichment (interaction score)): < -1.22
[3]
  binding signal (log2 enrichment (interaction score)): -7.98

## GGCUAGAACUAGUGGAUCCCCCGGCGCCCGGCGGCUCGAGCCCGGGUAAGUGUAACACGUCUGCAUGCCGCCGGGCGCCAUGCCUGCAGGUCGACUCUAGAAAACAUG
[1]
  binding signal (log2 enrichment (interaction score)): < -6.6
[2]
  binding signal (log2 enrichment (interaction score)): -1.1

## GGCUAGAACUAGUGGAUCCCCCGGCGCCCGGCGGCUCGAGCCCGGGUAAGUAGCCCCCGUCUGCAUGCCGCCGGGCGCCAUGCCUGCAGGUCGACUCUAGAAAACAUG
[1]
  binding signal (log2 enrichment (interaction score)): < -6.13
[4]
  binding signal (log2 enrichment (interaction score)): -2.8

## GGCUAGAACUAGUGGAUCCCCCGGCGCCCGGCGGCUCGAGCCCGGGUAAGGUUUCCCCGUCUGCAUGCCGCCGGGCGCCAUGCCUGCAGGUCGACUCUAGAAAACAUG
[1]
  binding signal (log2 enrichment (interaction score)): -2.57
[2]
  binding signal (log2 enrichment (interaction score)): -1.81

## GGCUAGAACUAGUGGAUCCCCCGGCGCCCGGCGGCUCGAGCCCGGGUAAGUUUUAGACGUCUGCAUGCCGCCGGGCGCCAUGCCUGCAGGUCGACUCUAGAAAACAUG
[1]
  binding signal (log2 enrichment (interaction score)): -2.81
[2]
  binding signal (log2 enrichment (interaction score)): -1.48

## GGCUAGAACUAGUGGAUCCCCCGGCGCCCGGCGGCUCGAGCCCGGGUAAGUUGCAUGCGUCUGCAUGCCGCCGGGCGCCAUGCCUGCAGGUCGACUCUAGAAAACAUG
[1]
  binding signal (log2 enrichment (interaction score)): < -6.97
[2]
  binding signal (log2 enrichment (interaction score)): < -1.32

## GGCUAGAACUAGUGGAUCCCCCGGCGCCCGGCGGCUCGAGCCCGGGUAAGUUGCCUAAGUCUGCAUGCCGCCGGGCGCCAUGCCUGCAGGUCGACUCUAGAAAACAUG
[1]
  binding signal (log2 enrichment (interaction score)): < -5.65
[4]
  binding signal (log2 enrichment (interaction score)): -2.83

## GGCUAGAACUAGUGGAUCCCCCGGCGCCCGGCGGCUCGAGCCCGGGUAAGUUUGGAAAGUCUGCAUGCCGCCGGGCGCCAUGCCUGCAGGUCGACUCUAGAAAACAUG
[1]
  binding signal (log2 enrichment (interaction score)): -5.5
[2]
  binding signal (log2 enrichment (interaction score)): -0.98

## GGCUAGAACUAGUGGAUCCCCCGGCGCCCGGCGGCUCGAGCCCGGGUAAGCUGAACUAGUCUGCAUGCCGCCGGGCGCCAUGCCUGCAGGUCGACUCUAGAAAACAUG
[1]
  binding signal (log2 enrichment (interaction score)): -6.26
[2]
  binding signal (log2 enrichment (interaction score)): -1.61
[6]
  binding signal (log2 enrichment (interaction score)): -1.38

## GGCUAGAACUAGUGGAUCCCCCGGCGCCCGGCGGCUCGAGCCCGGGUAAGUUUGGACAGUCUGCAUGCCGCCGGGCGCCAUGCCUGCAGGUCGACUCUAGAAAACAUG
[1]
  binding signal (log2 enrichment (interaction score)): -5.71
[2]
  binding signal (log2 enrichment (interaction score)): < -1.14

## GGCUAGAACUAGUGGAUCCCCCGGCGCCCGGCGGCUCGAGCCCGGGUAAGGUUAUUGAGUCUGCAUGCCGCCGGGCGCCAUGCCUGCAGGUCGACUCUAGAAAACAUG
[1]
  binding signal (log2 enrichment (interaction score)): -4.97
[4]
  binding signal (log2 enrichment (interaction score)): -2.31

## GGCUAGAACUAGUGGAUCCCCCGGCGCCCGGCGGCUCGAGCCCGGGUAAGGAUAUAUUGUCUGCAUGCCGCCGGGCGCCAUGCCUGCAGGUCGACUCUAGAAAACAUG
[1]
  binding signal (log2 enrichment (interaction score)): -5.64
[4]
  binding signal (log2 enrichment (interaction score)): -2.19

## GGCUAGAACUAGUGGAUCCCCCGGCGCCCGGCGGCUCGAGCCCGGGUAAGGUUUGGAAGUCUGCAUGCCGCCGGGCGCCAUGCCUGCAGGUCGACUCUAGAAAACAUG
[1]
  binding signal (log2 enrichment (interaction score)): -5.28
[2]
  binding signal (log2 enrichment (interaction score)): -1.87

## GGCUAGAACUAGUGGAUCCCCCGGCGCCCGGCGGCUCGAGCCCGGGUAAGCCGCAAUGGUCUGCAUGCCGCCGGGCGCCAUGCCUGCAGGUCGACUCUAGAAAACAUG
[1]
  binding signal (log2 enrichment (interaction score)): -6.07
[2]
  binding signal (log2 enrichment (interaction score)): < -1.23
[3]
  binding signal (log2 enrichment (interaction score)): < -7.67

## GGCUAGAACUAGUGGAUCCCCCGGCGCCCGGCGGCUCGAGCCCGGGUAAGUUAUAAUGGUCUGCAUGCCGCCGGGCGCCAUGCCUGCAGGUCGACUCUAGAAAACAUG
[1]
  binding signal (log2 enrichment (interaction score)): < -4.12
[2]
  binding signal (log2 enrichment (interaction score)): -1.46

## GGCUAGAACUAGUGGAUCCCCCGGCGCCCGGCGGCUCGAGCCCGGGUAAGUUGCACACGUCUGCAUGCCGCCGGGCGCCAUGCCUGCAGGUCGACUCUAGAAAACAUG
[1]
  binding signal (log2 enrichment (interaction score)): < -5.48
[2]
  binding signal (log2 enrichment (interaction score)): -1.25

## GGCUAGAACUAGUGGAUCCCCCGGCGCCCGGCGGCUCGAGCCCGGGUAAGUUCAAACCGUCUGCAUGCCGCCGGGCGCCAUGCCUGCAGGUCGACUCUAGAAAACAUG
[1]
  binding signal (log2 enrichment (interaction score)): -4.92
[2]
  binding signal (log2 enrichment (interaction score)): < -1.09
[3]
  binding signal (log2 enrichment (interaction score)): -7.68
[6]
  binding signal (log2 enrichment (interaction score)): 0.16

## GGCUAGAACUAGUGGAUCCCCCGGCGCCCGGCGGCUCGAGCCCGGGUAAGUUGCGGUUGUCUGCAUGCCGCCGGGCGCCAUGCCUGCAGGUCGACUCUAGAAAACAUG
[1]
  binding signal (log2 enrichment (interaction score)): -5.94
[2]
  binding signal (log2 enrichment (interaction score)): -1.38

## GGCUAGAACUAGUGGAUCCCCCGGCGCCCGGCGGCUCGAGCCCGGGUAAGACAGAAUGGUCUGCAUGCCGCCGGGCGCCAUGCCUGCAGGUCGACUCUAGAAAACAUG
[1]
  binding signal (log2 enrichment (interaction score)): -6.53
[2]
  binding signal (log2 enrichment (interaction score)): < -1.22
[3]
  binding signal (log2 enrichment (interaction score)): < -7.19
